Results reported in patent publication US9844521B2, “Pharmaceutical composition comprising ginger extract or shogaol” (UNIVERSITY-INDUSTRY COOPERATION GROUP OF KYUNG HEE …, priority 2008, dated 2017).
Some results were stated once for a whole list of compounds, not compound by compound.

Tested on: SD rats
Test: Acute toxicity test
Settings: observed 2 weeks

Compound: CCCCC/C=C/C(=O)CCc1ccc(O)c(OC)c1 [shogaol, (E)-1-(4-hydroxy-3-methoxyphenyl)dec-4-en-3-one]
- dosage at which stability was confirmed: at least 5 g/kg
